Measurements reported in PubChem BioAssay AID1224827 (NIAID, 2016)

Test: 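Retest primary hits on a TNF reporter with six siRNAs per gene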 (follow-up of hits)
Cell system: RAW264.7 G9 mouse macrophage reporter clone
Reagents: single siRNA against mouse genes, 100 nM siRNA
Duration: siRNA for 2 days, then LPS about 16 h
Challenge: bacterial lipopolysaccharide (LPS), 10 ng/ml, cells fixed after overnight (about 16 h) stimulation
Detection: 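TNF promoter reporter red fluorescence in nuclei, background subtracted, normalised per plate and to non-targeting control siRNA, as z-scores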
Reading the numbers: TNF reporter z-score, mean and TNF reporter z-score: higher = stronger Tnf promoter reporter signal; gene median z, three same-vendor siRNAs: higher = stronger Tnf reporter signal for the gene
Active means: 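Active siRNA: replicate-mean z-score of 2 or more, or -2 or less; no calls for control wells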
This is a random part of about 3,800 deposited reagents. In the full data, about 2,200 (57%) are marked active. 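Active means a strong reporter change in either direction; calls are per siRNA, not per gene; qiagen siRNAs gave weaker effects.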

Gene	PubChem SID	TNF reporter z-score, mean	gene median z, three same-vendor siRNAs	TNF reporter z-score, repeat 1	TNF reporter z-score, repeat 2	Outcome
Gpd1l	SID315489033	-3.64	-4.14	-3.63	-3.64	active
Gpd1l	SID315489034	-4.14	-4.14	-4.18	-4.09	active
Gpd1l	SID315489035	-5.12	-4.14	-4.8	-5.45	active
Gpd1l	SID315489036	4.85	1.07	9.14	0.567	active
Gpd1l	SID315489037	0.566	1.07	1.58	-0.449	inactive
Gpd1l	SID315489038	0.42	1.07	3.49	-2.65	inactive
Gsc2	SID315488007	2.64	1.07	2.62	2.66	active
Gsc2	SID315488008	1.07	1.07	1.6	0.532	inactive
Gsc2	SID315488009	-0.586	1.07	0.537	-1.71	inactive
Cox6b2	SID315489027	5.35	-5.01	3.45	7.25	active
Cox6b2	SID315489028	-5.23	-5.01	-4.32	-6.13	active
Cox6b2	SID315489029	-6.33	-5.01	-5.7	-6.96	active
Cox6b2	SID315489030	0.407	-0.928	1.14	-0.324	inactive
Cox6b2	SID315489031	0.413	-0.928	2.36	-1.53	inactive
Cox6b2	SID315489032	-3.57	-0.928	-2.57	-4.56	active
Entr1	SID315486528	1.62	-2.97	0.676	2.56	inactive
Entr1	SID315486529	-2.97	-2.97	-3.08	-2.87	active
Entr1	SID315486530	-3.68	-2.97	-3.88	-3.48	active
Entr1	SID315486531	3.6	2.84	6.32	0.869	active
Entr1	SID315486532	2.84	2.84	4.89	0.79	active
Entr1	SID315486533	2.8	2.84	4.81	0.784	active
Zfp747	SID315488808	-1.17	-4.46	-0.779	-1.56	inactive
Zfp747	SID315488809	-4.62	-4.46	-4.56	-4.69	active
Zfp747	SID315488810	-4.82	-4.46	-5.28	-4.37	active
Zfp747	SID315488811	0.526	-0.673	2.17	-1.12	inactive
Zfp747	SID315488812	-0.572	-0.673	-0.517	-0.627	inactive
Zfp747	SID315488813	-1.06	-0.673	-0.719	-1.39	inactive
Zfp938	SID315488457	0.246	-1.09	-0.899	1.39	inactive
Zfp938	SID315488458	-1.63	-1.09	-0.831	-2.43	inactive
Zfp938	SID315488459	-1.5	-1.09	-1.71	-1.28	inactive
Zfp938	SID315488460	2.78	0.00686	5.7	-0.134	active
Zfp938	SID315488461	1.78	0.00686	3.41	0.148	inactive
Zfp938	SID315488462	-2.16	0.00686	-3.25	-1.07	active

Not a retest: entries from further up.
Gene	PubChem SID	TNF reporter z-score, mean	gene median z, three same-vendor siRNAs	TNF reporter z-score, repeat 1	TNF reporter z-score, repeat 2	Outcome
Entr1	SID315486532	2.84	2.84	4.89	0.79	active
Entr1	SID315486533	2.8	2.84	4.81	0.784	active
Zfp747	SID315488808	-1.17	-4.46	-0.779	-1.56	inactive
Zfp747	SID315488809	-4.62	-4.46	-4.56	-4.69	active
Zfp747	SID315488810	-4.82	-4.46	-5.28	-4.37	active
Zfp747	SID315488811	0.526	-0.673	2.17	-1.12	inactive
Zfp747	SID315488812	-0.572	-0.673	-0.517	-0.627	inactive
Zfp747	SID315488813	-1.06	-0.673	-0.719	-1.39	inactive
Zfp938	SID315488457	0.246	-1.09	-0.899	1.39	inactive
Zfp938	SID315488458	-1.63	-1.09	-0.831	-2.43	inactive
Zfp938	SID315488459	-1.5	-1.09	-1.71	-1.28	inactive

The listing continues:
Gene	PubChem SID	TNF reporter z-score, mean	gene median z, three same-vendor siRNAs	TNF reporter z-score, repeat 1	TNF reporter z-score, repeat 2	Outcome
Cela2a	SID315484092	2.83	-1.96	3.41	2.25	active
Cela2a	SID315484093	-1.96	-1.96	-2.16	-1.77	inactive
Cela2a	SID315484094	-3.49	-1.96	-2.87	-4.12	active
Cela2a	SID315484095	1.99	-0.0752	3.41	0.571	inactive
Cela2a	SID315484096	0.238	-0.0752	1.41	-0.933	inactive
Cela2a	SID315484097	-2.14	-0.0752	-0.721	-3.55	active
Gpr4	SID315488868	1.28	-0.501	-0.0461	2.61	inactive
Gpr4	SID315488869	-0.19	-0.501	-0.955	0.575	inactive
Gpr4	SID315488870	-1.86	-0.501	-2.08	-1.63	inactive
Gpr4	SID315488871	5.26	1.56	8.2	2.33	active
Gpr4	SID315488872	1.56	1.56	1.78	1.34	inactive
Gpr4	SID315488873	-2.12	1.56	-2.21	-2.03	active
Washc2	SID315485427	-0.373	-2.19	-0.677	-0.0692	inactive
Washc2	SID315485428	-1.57	-2.19	0.567	-3.7	inactive
Washc2	SID315485429	-3.73	-2.19	-3.76	-3.71	active
Washc2	SID315485430	1.6	0.0205	2.93	0.278	inactive
Washc2	SID315485431	0.296	0.0205	0.83	-0.237	inactive
Washc2	SID315485432	-1.53	0.0205	-0.264	-2.81	inactive
Tec	SID315484986	-3.1	-4.35	-3.39	-2.81	active
Tec	SID315484987	-4.35	-4.35	-4.17	-4.53	active
Tec	SID315484988	-6.89	-4.35	-6.5	-7.27	active
Tec	SID315484989	2.98	1.29	5.16	0.801	active
Tec	SID315484990	3.11	1.29	5.86	0.371	active
Tec	SID315484991	1.2	1.29	1.79	0.619	inactive
Snrnp40	SID315486390	-2.22	-3.83	-2.03	-2.41	active
Snrnp40	SID315486391	-4.22	-3.83	-3.55	-4.89	active
Snrnp40	SID315486392	-4.58	-3.83	-4.1	-5.05	active
Snrnp40	SID315486393	4.09	0.848	7.1	1.09	active
Snrnp40	SID315486394	3.38	0.848	6.15	0.607	active
Snrnp40	SID315486395	-4.5	0.848	-6.49	-2.51	active
Fabp6	SID315484410	4.06	2.59	2.84	5.27	active
Fabp6	SID315484411	2.82	2.59	3.3	2.34	active
Fabp6	SID315484412	-3.29	2.59	-3.36	-3.23	active
Fabp6	SID315484413	1.02	-1.04	3.51	-1.46	inactive
Fabp6	SID315484414	0.584	-1.04	2.14	-0.968	inactive
Fabp6	SID315484415	-1.38	-1.04	-1.65	-1.11	inactive
Psmb7	SID315484710	-0.659	-2.35	-1.3	-0.0147	inactive
Psmb7	SID315484711	-2.35	-2.35	-2.52	-2.17	active
Psmb7	SID315484712	-3.61	-2.35	-3.94	-3.27	active
Irf2bpl	SID315488469	-0.509	-1.73	-1.58	0.567	inactive
Irf2bpl	SID315488470	-1.12	-1.73	-0.366	-1.88	inactive
Irf2bpl	SID315488471	-2.91	-1.73	-2.16	-3.66	active
Irf2bpl	SID315488472	4.26	1.93	7.13	1.39	active
Irf2bpl	SID315488473	2.89	1.93	5	0.777	active
Irf2bpl	SID315488474	0.966	1.93	2.46	-0.533	inactive
